Laboratory results as given in patent publication US6528620B1, “Sid-polyamide fusions: a potent method of regulating gene expression” (University of Utah Research Foundation, priority 1999, dated 2003).
No constants are given. Whether binding was seen depends on the method and setting. Some results given as binding are weak or reduced against the parent protein; the word gives no strength.

Sequences of proteins named here, by UniProt entry; tags and fusion partners are left off. A change or cut given only in a name is not applied to a line headed by its entry.
UniProt Q05195: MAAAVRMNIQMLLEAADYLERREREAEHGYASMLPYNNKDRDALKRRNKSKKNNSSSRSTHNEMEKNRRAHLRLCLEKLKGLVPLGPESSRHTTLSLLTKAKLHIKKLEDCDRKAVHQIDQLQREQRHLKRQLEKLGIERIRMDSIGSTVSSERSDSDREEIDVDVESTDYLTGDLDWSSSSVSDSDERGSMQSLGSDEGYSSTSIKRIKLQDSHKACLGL

Experiments:
[1] = target: GST-PAH2, a GST fusion to the PAH2 domain of mSIN3A [GST: P08515]; assay: far Western blot: 35S-labelled probe on PVDF-immobilised GST-PAH2
[2] = target: GST-PAH2, a GST fusion to the PAH2 domain of mSIN3A [GST: P08515]; assay: far Western blot, probe purified under native conditions
[3] = target: GST-PAH2, a GST fusion to the PAH2 domain of mSIN3A [GST: P08515]; assay: far Western blot, probe purified under denaturing conditions and renatured

Measured: binding

Mad1His (from UniProt Q05195 1-221)
binds: all assays above
